Source: the supplement of paper PMC10849652
Some of the results follow.

Amino acid sequences for entries named in this document (tags omitted). A change or cut given only in a name is not applied to a line headed by its entry.
UniProt O95630, whole entry, looked up: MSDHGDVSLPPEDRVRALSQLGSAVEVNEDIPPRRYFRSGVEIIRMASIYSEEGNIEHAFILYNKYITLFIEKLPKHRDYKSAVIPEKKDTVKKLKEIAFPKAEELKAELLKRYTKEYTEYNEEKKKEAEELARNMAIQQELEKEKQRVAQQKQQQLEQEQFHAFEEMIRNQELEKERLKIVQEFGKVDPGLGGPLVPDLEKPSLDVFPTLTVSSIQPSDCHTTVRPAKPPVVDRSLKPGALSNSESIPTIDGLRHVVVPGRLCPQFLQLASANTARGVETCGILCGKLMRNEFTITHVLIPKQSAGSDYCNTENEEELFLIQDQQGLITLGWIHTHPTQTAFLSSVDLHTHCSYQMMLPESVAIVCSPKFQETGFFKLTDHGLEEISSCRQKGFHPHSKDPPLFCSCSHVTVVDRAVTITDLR
UniProt P78362, whole entry, looked up: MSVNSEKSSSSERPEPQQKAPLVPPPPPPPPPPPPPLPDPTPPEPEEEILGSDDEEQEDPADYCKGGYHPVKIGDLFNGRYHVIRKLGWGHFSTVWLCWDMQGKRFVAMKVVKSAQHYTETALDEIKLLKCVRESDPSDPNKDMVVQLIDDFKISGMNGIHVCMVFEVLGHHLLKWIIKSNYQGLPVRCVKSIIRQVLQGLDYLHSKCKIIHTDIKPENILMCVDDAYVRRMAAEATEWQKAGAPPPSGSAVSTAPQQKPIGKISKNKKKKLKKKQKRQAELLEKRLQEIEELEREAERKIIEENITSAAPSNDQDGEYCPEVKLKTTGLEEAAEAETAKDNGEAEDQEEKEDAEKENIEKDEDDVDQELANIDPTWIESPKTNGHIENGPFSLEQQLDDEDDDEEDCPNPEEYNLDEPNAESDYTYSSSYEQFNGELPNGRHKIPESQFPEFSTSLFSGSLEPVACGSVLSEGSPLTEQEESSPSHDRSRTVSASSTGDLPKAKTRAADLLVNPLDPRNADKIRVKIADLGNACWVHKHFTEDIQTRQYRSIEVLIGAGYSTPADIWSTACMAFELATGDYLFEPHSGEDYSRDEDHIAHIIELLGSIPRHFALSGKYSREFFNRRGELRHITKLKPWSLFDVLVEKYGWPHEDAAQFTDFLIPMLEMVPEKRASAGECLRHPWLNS
UniProt Q9BXP5: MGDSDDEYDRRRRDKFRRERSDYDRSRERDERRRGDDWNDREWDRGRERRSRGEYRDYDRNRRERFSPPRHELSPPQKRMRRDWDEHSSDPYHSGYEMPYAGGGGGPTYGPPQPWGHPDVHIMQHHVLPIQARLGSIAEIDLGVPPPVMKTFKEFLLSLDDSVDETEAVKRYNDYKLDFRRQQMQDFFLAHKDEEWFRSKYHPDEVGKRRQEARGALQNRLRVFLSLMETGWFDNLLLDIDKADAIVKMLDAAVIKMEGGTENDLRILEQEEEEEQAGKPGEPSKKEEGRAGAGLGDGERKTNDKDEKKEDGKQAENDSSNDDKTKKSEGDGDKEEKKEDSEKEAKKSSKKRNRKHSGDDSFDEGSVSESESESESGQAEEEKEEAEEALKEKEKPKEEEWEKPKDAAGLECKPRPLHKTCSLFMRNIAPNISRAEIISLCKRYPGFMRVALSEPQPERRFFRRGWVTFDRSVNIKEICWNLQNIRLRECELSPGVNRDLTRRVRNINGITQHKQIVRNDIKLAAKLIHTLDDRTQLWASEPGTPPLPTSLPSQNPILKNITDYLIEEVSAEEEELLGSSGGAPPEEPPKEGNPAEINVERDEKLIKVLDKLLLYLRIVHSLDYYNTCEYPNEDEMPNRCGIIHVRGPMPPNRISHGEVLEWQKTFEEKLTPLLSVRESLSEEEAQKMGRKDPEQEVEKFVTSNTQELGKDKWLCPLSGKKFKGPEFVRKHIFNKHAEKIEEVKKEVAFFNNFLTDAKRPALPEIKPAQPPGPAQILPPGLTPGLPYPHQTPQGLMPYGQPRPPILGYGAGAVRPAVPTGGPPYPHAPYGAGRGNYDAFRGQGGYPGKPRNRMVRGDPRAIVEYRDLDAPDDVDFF
UniProt P16150: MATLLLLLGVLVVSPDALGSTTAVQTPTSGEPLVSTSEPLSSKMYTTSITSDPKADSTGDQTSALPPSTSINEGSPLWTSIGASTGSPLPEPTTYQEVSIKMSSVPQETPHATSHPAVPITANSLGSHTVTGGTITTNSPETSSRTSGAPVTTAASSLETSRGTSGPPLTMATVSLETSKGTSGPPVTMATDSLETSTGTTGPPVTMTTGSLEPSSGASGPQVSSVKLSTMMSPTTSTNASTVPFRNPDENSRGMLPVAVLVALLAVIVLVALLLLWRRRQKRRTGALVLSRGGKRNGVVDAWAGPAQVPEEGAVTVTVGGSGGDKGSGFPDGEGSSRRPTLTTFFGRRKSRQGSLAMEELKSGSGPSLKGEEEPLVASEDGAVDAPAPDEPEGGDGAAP
UniProt Q8NB90: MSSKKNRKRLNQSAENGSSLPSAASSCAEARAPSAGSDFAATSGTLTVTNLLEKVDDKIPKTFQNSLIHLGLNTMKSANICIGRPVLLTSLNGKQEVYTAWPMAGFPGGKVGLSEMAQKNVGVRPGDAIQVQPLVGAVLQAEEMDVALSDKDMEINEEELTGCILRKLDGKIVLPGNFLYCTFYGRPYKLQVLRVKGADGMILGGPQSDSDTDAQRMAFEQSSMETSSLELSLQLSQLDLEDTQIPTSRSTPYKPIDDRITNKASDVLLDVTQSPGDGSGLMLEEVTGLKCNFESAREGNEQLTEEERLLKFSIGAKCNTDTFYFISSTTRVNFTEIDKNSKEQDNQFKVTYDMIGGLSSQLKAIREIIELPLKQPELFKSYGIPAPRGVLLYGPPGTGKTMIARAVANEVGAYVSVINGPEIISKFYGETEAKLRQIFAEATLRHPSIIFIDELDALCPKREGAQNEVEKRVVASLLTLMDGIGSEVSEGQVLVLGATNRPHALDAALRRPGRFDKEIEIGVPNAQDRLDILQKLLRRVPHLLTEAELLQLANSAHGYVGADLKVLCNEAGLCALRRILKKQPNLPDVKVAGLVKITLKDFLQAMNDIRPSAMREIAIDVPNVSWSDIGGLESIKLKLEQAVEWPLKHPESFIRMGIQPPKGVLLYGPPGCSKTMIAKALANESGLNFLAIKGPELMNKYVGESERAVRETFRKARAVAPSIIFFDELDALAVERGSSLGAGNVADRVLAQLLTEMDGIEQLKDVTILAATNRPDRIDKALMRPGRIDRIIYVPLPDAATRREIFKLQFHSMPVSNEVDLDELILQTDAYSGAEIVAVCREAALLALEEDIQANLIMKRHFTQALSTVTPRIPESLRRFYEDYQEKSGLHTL
UniProt Q8N3U4: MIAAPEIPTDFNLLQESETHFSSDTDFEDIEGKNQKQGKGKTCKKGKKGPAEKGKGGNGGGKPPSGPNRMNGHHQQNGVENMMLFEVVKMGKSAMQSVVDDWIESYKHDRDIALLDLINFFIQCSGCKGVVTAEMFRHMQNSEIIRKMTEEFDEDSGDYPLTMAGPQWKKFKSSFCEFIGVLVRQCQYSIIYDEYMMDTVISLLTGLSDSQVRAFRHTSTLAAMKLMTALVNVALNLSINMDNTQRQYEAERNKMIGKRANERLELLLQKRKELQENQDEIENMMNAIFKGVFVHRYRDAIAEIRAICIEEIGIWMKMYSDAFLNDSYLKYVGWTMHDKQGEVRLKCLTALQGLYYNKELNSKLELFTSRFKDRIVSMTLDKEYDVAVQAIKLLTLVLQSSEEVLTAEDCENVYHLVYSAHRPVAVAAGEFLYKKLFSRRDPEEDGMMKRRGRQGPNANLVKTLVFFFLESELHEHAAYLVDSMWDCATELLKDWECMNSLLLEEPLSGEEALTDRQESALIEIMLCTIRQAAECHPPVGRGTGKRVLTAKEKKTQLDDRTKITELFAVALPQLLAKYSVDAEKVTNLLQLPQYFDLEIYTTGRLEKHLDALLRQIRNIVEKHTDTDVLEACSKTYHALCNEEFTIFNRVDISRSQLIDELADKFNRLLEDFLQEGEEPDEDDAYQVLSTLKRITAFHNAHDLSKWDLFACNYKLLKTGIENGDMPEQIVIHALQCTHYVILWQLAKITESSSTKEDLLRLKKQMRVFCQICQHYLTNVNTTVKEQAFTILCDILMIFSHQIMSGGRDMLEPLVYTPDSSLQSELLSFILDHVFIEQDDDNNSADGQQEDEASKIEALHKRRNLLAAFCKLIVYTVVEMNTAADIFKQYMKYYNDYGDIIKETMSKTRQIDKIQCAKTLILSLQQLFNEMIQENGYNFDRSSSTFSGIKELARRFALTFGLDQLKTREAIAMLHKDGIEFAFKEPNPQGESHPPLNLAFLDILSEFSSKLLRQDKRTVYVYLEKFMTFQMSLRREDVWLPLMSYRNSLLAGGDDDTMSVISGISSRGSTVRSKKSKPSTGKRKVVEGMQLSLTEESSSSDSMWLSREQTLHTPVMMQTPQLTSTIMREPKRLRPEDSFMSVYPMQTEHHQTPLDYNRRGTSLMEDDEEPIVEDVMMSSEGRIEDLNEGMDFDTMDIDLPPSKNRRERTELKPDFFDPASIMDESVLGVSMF
UniProt Q9HBM1: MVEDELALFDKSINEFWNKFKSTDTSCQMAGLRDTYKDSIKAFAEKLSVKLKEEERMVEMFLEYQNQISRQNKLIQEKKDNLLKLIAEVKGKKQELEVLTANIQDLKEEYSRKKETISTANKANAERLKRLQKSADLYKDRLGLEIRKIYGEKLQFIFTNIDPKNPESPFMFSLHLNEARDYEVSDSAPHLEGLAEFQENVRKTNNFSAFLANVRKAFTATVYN
UniProt Q9C004: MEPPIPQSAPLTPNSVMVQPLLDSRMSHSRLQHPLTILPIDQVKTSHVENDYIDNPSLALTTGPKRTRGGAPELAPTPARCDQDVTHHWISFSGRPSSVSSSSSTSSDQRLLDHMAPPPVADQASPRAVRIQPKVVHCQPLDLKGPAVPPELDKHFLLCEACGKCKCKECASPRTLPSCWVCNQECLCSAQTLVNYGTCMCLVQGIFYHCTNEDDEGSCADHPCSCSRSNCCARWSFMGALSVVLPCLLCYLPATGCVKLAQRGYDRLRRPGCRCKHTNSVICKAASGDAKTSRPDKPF
UniProt P31948, whole entry, looked up: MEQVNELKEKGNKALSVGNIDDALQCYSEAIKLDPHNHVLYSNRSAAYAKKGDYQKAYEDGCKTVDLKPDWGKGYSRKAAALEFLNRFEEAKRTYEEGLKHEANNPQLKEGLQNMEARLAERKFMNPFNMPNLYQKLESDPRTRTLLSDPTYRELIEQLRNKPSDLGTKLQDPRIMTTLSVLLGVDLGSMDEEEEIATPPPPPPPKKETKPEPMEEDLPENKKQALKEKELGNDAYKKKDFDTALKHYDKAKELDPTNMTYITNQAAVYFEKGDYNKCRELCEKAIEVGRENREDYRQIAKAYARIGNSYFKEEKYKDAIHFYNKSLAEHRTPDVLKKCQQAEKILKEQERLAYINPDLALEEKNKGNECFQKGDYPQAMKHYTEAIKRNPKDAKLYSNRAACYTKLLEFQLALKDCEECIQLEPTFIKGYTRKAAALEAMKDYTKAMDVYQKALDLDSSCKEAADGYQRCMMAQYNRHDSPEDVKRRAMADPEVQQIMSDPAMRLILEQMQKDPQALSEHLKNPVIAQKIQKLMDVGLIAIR
UniProt Q8IYB3: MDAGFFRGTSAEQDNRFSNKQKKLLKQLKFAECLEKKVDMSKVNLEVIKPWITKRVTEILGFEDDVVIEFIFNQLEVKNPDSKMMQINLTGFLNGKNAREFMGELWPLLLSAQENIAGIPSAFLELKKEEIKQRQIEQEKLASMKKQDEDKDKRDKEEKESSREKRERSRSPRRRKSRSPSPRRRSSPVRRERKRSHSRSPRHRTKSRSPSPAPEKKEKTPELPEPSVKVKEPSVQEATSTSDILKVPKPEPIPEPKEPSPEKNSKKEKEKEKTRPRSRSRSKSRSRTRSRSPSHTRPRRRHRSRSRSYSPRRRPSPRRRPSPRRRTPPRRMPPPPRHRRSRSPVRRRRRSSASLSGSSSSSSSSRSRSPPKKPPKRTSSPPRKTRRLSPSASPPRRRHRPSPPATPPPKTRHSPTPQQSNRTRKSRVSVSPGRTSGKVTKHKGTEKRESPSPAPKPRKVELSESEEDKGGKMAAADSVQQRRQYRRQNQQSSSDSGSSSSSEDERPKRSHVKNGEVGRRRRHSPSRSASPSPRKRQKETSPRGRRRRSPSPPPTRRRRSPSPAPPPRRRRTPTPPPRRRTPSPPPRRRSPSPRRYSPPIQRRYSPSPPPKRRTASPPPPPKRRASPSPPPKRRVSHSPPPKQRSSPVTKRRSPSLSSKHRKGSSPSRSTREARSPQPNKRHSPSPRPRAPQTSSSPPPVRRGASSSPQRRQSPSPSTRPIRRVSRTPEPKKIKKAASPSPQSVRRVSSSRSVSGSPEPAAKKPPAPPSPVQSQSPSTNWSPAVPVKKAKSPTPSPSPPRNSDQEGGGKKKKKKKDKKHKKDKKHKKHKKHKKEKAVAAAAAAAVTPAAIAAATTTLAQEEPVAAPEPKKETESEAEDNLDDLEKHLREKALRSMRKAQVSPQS

Tests used:
Test in all cases: log2 fold change, soluble protein after heating vs DMSO (PISA); higher = thermal stabilisation; K562 cells, 10 uM, 30 min; active = over 0.2 and 3.5 SD of the protein, either way, in both replicates (recomputed)
[1] = compound: CC1=C(C=C(C=C1)NC(=O)C2=CC(=CC=C2)C(C)(C)C#N)NC3=CC4=C(C=C3)N=CN(C4=O)C
Outline: (§1)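 Soluble protein was quantified by TMTpro 16plex LC-MS/MS after channel sums were equalised. It was obtained as the supernatant after 21,000xg for 90 min from pooled aliquots of K562 cells (2×10^6 cells/mL, 10 μM compound, 30 min) heated for 3 min across 48°C-58°C and extracted in PBS with 0.5% NP-40 at 4°C. Thermal stability values are relative to control samples and come from duplicates. They are given as log2 fold changes.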

[2] = compound: CC1=C(C=C(C=C1)NC(=O)C2=CC(=CC=C2)N(C)C)NC(=O)C3=CC=C(C=C3)O
Outline: as §1

[3] = compound: CC1=CC=C(C=C1)SC2=C3C=C(SC3=CN=C2)C(=O)N
Outline: as §1

[4] = compound: CC1=NC(=CC=C1)C2=C(N=C(N2)C(C)(C)C)C3=CC4=NC=CN=C4C=C3
Outline: as §1

Nexturastat A = compound: CCCCN(Cc1ccc(C(=O)NO)cc1)C(=O)Nc1ccccc1 [Nexturastat A]
Outline: as §1

vemurafenib = compound: CCCS(=O)(=O)Nc1ccc(F)c(C(=O)c2c[nH]c3ncc(-c4ccc(Cl)cc4)cc23)c1F [vemurafenib]
Outline: as §1

[5] = compound: CCCS(=O)(=O)Nc1ccc(F)c(C(=O)c2c[nH]c3ncc(Cl)cc23)c1F
Outline: as §1

[6] = compound: CCCc1cc(C)[nH]c(=O)c1CNC(=O)c1cc(-c2ccnc(N3CCN(C)CC3)c2)cc2c1cnn2C(C)C
Outline: as §1

givinostat = compound: CCN(CC)Cc1ccc2cc(COC(=O)Nc3ccc(C(=O)NO)cc3)ccc2c1 [givinostat]
Outline: as §1

barasertib = compound: CCN(CCCOc1ccc2c(Nc3cc(CC(=O)Nc4cccc(F)c4)[nH]n3)ncnc2c1)CCOP(=O)(O)O [barasertib]
Outline: as §1

[7] = compound: CC[C@@H]1C(=O)N(C)c2cnc(Nc3ccc(C(=O)NC4CCN(C)CC4)cc3OC)nc2N1C1CCCC1
Outline: as §1

volasertib = compound: CC[C@@H]1C(=O)N(C)c2cnc(Nc3ccc(C(=O)N[C@H]4CC[C@H](N5CCN(CC6CC6)CC5)CC4)cc3OC)nc2N1C(C)C [volasertib]
Outline: as §1

[8] = compound: CC[C@H](C)N1C=C(C2=C(C=C(C=C21)C3=CN=C(C=C3)N4CCNCC4)C(=O)NCC5=C(C=C(NC5=O)C)C)C
Outline: as §1

epoxomicin = compound: CC[C@H](C)[C@@H](C(=O)N[C@@H]([C@@H](C)O)C(=O)N[C@@H](CC(C)C)C(=O)[C@]1(CO1)C)NC(=O)[C@H]([C@@H](C)CC)N(C)C(=O)C [epoxomicin]
Outline: as §1

[9] = compound: CCn1c(C(=O)N(C2CC2)C2CC2)cc2c3c(ncn3C)c(Nc3cc(C)n(C)n3)nc21
Outline: as §1

[10] = compound: CCn1cc(-c2ccnc3[nH]c(-c4cccc(CN(C)C)c4)cc23)c(-c2ccc(NC(=O)N(C)C)cc2)n1
Outline: as §1

[11] = compound: CN(C)CC(=O)Nc1ccc2[nH]c(=O)c3ccccc3c2c1
Outline: as §1

rosiglitazone = compound: CN(CCOC1=CC=C(C=C1)C[C@H]2C(=O)NC(=O)S2)C3=CC=CC=N3 (racemic) [rosiglitazone]
Outline: as §1

[12] = compound: CN1C2=C(C3=C1C(=O)N(N=C3)CC4=CC(=CC=C4)N)SC(=C2)S(=O)C
Outline: as §1

[13] = compound: CN1CCC(CNc2ccc3ncc(-c4cccc(OC(F)(F)F)c4)n3n2)CC1
Outline: as §1

Measured: log2 fold change

STAMBP (UniProt O95630)
inactive: [1] 0.024 | [2] -0.037 | [3] 0.133 | [4] -0.051 | Nexturastat A 0.049 | vemurafenib 0.055 | [5] -0.023 | [6] 0.158 | givinostat 0.067 | barasertib 0 | [7] -0.028 | volasertib -0.21 | [8] 0.069 | epoxomicin -0.04 | [9] -0.056 | [10] -0.031 | [11] 0.027 | rosiglitazone 0.056 | [12] 0.048 | [13] -0.039

SRPK2 isoform 2 (UniProt P78362)
inactive: [1] 0.015 | [2] 0 | [3] -0.036 | [4] -0.085 | Nexturastat A 0.149 | vemurafenib -0.092 | [5] -0.103 | [6] 0.09 | givinostat -0.057 | barasertib -0.05 | [7] 0.117 | volasertib 0.433 | [8] 0.026 | epoxomicin -0.338 | [9] -0.021 | [10] 0.217 | [11] -0.162 | rosiglitazone -0.075 | [12] 0.354 | [13] 0.263

SPNS1 (UniProt Q9H2V7)
inactive: [1] 0.039 | [2] 0.009 | [3] -0.056 | [4] -0.004 | Nexturastat A -0.083 | vemurafenib 0.01 | [5] -0.12 | [6] -0.063 | givinostat -0.008 | barasertib -0.017 | [7] -0.006 | volasertib -0.058 | [8] -0.018 | epoxomicin -0.072 | [9] 0.008 | [10] -0.031 | [11] 0.009 | rosiglitazone 0.023 | [12] 0.01 | [13] -0.175

SRRT (UniProt Q9BXP5)
inactive: [1] 0.115 | [2] -0.158 | [3] 0.099 | [4] 0.137 | Nexturastat A -0.087 | vemurafenib 0.118 | [5] 0.17 | [6] 0.089 | givinostat 0.204 | barasertib 0.105 | [7] -0.138 | volasertib -0.375 | [8] 0.182 | epoxomicin 0.16 | [9] -0.107 | [10] -0.105 | [11] 0.17 | rosiglitazone 0.143 | [12] -0.061 | [13] -0.221

SRGAP2 (UniProt O75044)
inactive: [1] 0.016 | [2] 0.011 | [3] -0.027 | [4] -0.027 | Nexturastat A 0.034 | vemurafenib -0.037 | [5] -0.015 | [6] 0.085 | givinostat 0.008 | barasertib 0.04 | [7] -0.031 | volasertib -0.015 | [8] 0.03 | epoxomicin -0.016 | [9] -0.014 | [10] -0.007 | [11] -0.016 | rosiglitazone 0.035 | [12] -0.015 | [13] -0.035

SPTA1 (UniProt P02549)
inactive: [1] -0.019 | [2] 0.055 | [3] -0.02 | [4] -0.055 | Nexturastat A 0.297 | vemurafenib 0.038 | [5] 0.07 | [6] 0.102 | givinostat 0.097 | barasertib 0.031 | [7] 0.022 | volasertib -0.277 | [8] 0.055 | epoxomicin -0.069 | [9] -0.047 | [10] 0.13 | [11] 0.026 | rosiglitazone -0.005 | [12] 0.302 | [13] -0.07

SPN (UniProt P16150)
inactive: [1] -0.096 | [2] -0.021 | [3] -0.017 | [4] -0.009 | Nexturastat A 0.009 | vemurafenib -0.019 | [5] -0.056 | [6] -0.033 | givinostat 0.003 | barasertib 0.012 | [7] 0.077 | volasertib 0.075 | [8] -0.089 | epoxomicin -0.005 | [9] -0.01 | [10] -0.055 | [11] -0.036 | rosiglitazone -0.02 | [12] -0.064 | [13] 0.19

SPCS1, A0A5F9YFS9
inactive: [1] -0.072 | [2] 0.007 | [3] 0.179 | [4] 0.049 | Nexturastat A 0.039 | vemurafenib 0.038 | [5] 0.157 | [6] -0.004 | givinostat -0.044 | barasertib -0.028 | [7] -0.189 | volasertib -0.052 | [8] 0.002 | epoxomicin -0.122 | [9] 0.033 | [10] -0.019 | [11] 0.027 | rosiglitazone 0.006 | [12] -0.159 | [13] 0.033

SPATA5 (UniProt Q8NB90)
inactive: [1] -0.031 | [2] 0.015 | [3] -0.021 | [4] 0.002 | Nexturastat A 0.007 | vemurafenib -0.028 | [5] -0.019 | [6] -0.013 | givinostat -0.012 | barasertib -0.051 | [7] 0.042 | volasertib 0.045 | [8] -0.031 | epoxomicin -0.093 | [9] 0.012 | [10] 0.02 | [11] -0.01 | rosiglitazone -0.028 | [12] 0.004 | [13] 0.046

SPTAN1 isoform 2 (UniProt Q13813)
inactive: [1] 0.044 | [2] 0.014 | [3] -0.022 | [4] -0.025 | Nexturastat A 0.03 | vemurafenib -0.01 | [5] -0.043 | [6] -0.015 | givinostat 0.017 | barasertib -0.01 | [7] 0.191 | volasertib 0.046 | [8] -0.014 | epoxomicin -0.045 | [9] -0.018 | [10] 0.007 | [11] -0.026 | rosiglitazone -0.06 | [12] 0.053 | [13] 0.095

STAG2 (UniProt Q8N3U4)
inactive: [1] -0.009 | [2] 0.007 | [3] 0 | [4] 0.008 | Nexturastat A 0.017 | vemurafenib 0.013 | [5] 0.023 | [6] 0.001 | givinostat 0.063 | barasertib 0.002 | [7] -0.011 | volasertib -0.126 | [8] 0.024 | epoxomicin 0.006 | [9] -0.002 | [10] -0.004 | [11] -0.001 | rosiglitazone -0.016 | [12] -0.046 | [13] -0.107

SPC25 (UniProt Q9HBM1)
inactive: [1] 0.006 | [2] 0.003 | [3] 0.027 | [4] 0.047 | Nexturastat A 0.073 | vemurafenib 0.008 | [5] 0.046 | [6] 0.032 | givinostat -0.023 | barasertib 0.019 | [7] -0.123 | volasertib -0.064 | [8] 0.071 | epoxomicin 0.126 | [9] 0.155 | [10] 0.018 | [11] 0.011 | rosiglitazone 0.031 | [12] -0.008 | [13] -0.046

SPRY4 (UniProt Q9C004)
inactive: [1] 0.046 | [2] 0.103 | [3] 0.001 | [4] -0.017 | Nexturastat A -0.026 | vemurafenib -0.01 | [5] 0.005 | [6] -0.063 | givinostat -0.077 | barasertib -0.013 | [7] 0.008 | volasertib -0.036 | [8] -0.04 | epoxomicin 0.031 | [9] 0.016 | [10] -0.015 | [11] -0.042 | rosiglitazone 0.016 | [12] -0.025 | [13] 0.063

SPTB isoform 2 (UniProt P11277)
inactive: [1] -0.447 | [2] 0.031 | [3] 0.036 | [4] -0.234 | Nexturastat A 0.068 | vemurafenib 0.018 | [5] 0.107 | [6] 0.167 | givinostat 0.192 | barasertib 0.156 | [7] -0.07 | volasertib -0.323 | [8] 0.159 | epoxomicin -0.175 | [9] -0.06 | [10] 0.06 | [11] 0.143 | rosiglitazone -0.077 | [12] 0.309 | [13] -0.242

STIP1 isoform 2 (UniProt P31948)
inactive: [1] 0.044 | [2] -0.011 | [3] -0.023 | [4] 0.058 | Nexturastat A -0.112 | vemurafenib 0.022 | [5] -0.01 | [6] -0.001 | givinostat -0.029 | barasertib -0.004 | [7] -0.038 | volasertib 0.008 | [8] 0.015 | epoxomicin 0.004 | [9] 0.013 | [10] -0.015 | [11] -0.003 | rosiglitazone 0.004 | [12] -0.067 | [13] 0.023

SRRM1 (UniProt Q8IYB3)
inactive: [1] 0.007 | [2] 0.032 | [3] -0.084 | [4] -0.048 | Nexturastat A 0.092 | vemurafenib -0.05 | [5] -0.018 | [6] -0.149 | givinostat -0.023 | barasertib -0.048 | [7] 0.114 | volasertib 0.212 | [8] -0.004 | epoxomicin -0.107 | [9] 0.058 | [10] 0.221 | [11] -0.055 | rosiglitazone -0.001 | [12] 0.13 | [13] 0.14
